In the supplement of paper PMC10849652:
Some of the results follow.

The chains behind the UniProt entries cited, without tags or fusion partners. Where a name states a change or a piece, a line headed by the entry shows the natural chain unless it says otherwise.
UniProt P62491: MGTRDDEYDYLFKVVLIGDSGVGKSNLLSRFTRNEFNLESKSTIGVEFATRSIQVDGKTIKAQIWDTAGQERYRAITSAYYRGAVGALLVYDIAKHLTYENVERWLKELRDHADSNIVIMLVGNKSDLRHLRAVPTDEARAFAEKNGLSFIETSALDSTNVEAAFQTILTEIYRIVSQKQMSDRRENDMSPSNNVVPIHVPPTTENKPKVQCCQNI
UniProt P61225: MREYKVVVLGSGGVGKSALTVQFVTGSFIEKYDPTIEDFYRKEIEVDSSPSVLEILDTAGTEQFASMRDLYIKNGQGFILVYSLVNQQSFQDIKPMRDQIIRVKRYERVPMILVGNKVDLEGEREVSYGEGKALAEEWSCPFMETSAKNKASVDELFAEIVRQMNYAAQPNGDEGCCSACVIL
UniProt Q09028, whole entry, looked up: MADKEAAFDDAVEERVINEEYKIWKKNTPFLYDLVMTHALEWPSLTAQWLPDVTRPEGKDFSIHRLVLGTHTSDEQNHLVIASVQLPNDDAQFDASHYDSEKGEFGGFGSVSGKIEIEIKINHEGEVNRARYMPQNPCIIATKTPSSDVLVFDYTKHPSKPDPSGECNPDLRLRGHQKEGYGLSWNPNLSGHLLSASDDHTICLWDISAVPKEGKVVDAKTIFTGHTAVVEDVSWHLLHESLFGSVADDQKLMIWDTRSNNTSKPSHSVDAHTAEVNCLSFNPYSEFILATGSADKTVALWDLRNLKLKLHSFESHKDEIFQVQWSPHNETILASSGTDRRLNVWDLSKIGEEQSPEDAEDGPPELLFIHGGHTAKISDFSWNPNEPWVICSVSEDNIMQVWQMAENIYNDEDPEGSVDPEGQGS
UniProt P46060: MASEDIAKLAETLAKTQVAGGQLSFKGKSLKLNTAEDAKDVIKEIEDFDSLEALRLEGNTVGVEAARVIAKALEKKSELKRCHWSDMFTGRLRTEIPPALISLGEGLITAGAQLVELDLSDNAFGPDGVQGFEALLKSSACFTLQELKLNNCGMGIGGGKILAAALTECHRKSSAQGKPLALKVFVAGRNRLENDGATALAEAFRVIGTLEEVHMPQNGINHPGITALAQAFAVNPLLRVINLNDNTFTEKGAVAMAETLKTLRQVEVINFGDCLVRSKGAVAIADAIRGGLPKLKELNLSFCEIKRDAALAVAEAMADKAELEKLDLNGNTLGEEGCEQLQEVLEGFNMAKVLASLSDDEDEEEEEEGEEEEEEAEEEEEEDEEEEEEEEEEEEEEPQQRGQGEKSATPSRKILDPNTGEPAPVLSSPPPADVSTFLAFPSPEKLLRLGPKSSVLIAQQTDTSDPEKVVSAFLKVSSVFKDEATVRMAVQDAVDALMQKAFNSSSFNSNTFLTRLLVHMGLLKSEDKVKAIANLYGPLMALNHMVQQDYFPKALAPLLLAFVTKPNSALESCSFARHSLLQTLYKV
UniProt O43502: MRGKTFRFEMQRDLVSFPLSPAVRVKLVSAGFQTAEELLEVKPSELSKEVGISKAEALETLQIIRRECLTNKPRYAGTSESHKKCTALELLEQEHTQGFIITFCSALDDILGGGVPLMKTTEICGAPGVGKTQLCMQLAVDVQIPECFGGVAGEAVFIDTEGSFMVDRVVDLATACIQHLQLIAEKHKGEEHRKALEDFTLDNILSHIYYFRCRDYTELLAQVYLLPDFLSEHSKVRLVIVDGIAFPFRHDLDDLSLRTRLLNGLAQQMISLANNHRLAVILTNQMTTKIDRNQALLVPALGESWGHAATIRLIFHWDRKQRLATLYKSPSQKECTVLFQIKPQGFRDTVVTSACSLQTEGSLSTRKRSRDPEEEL
UniProt Q9UL26: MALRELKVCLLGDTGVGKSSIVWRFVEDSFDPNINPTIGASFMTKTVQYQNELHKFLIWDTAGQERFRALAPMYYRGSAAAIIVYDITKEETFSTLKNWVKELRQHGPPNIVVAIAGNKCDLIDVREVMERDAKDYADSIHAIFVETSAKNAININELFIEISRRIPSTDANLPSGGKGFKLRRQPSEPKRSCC
UniProt P51149, whole entry, looked up: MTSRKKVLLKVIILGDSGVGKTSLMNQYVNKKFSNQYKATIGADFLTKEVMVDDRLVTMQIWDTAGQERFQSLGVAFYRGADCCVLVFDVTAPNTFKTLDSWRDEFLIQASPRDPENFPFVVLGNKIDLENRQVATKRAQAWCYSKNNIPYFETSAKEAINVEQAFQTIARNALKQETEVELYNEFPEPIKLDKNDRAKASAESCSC
UniProt O60671: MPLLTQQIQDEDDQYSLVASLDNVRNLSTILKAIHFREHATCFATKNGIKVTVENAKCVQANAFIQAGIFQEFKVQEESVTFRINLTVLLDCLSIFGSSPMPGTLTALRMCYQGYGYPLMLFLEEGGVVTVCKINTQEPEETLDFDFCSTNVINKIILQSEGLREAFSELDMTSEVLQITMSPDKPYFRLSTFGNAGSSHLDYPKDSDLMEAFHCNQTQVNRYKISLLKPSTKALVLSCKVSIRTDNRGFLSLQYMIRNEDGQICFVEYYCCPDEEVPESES
UniProt P54727: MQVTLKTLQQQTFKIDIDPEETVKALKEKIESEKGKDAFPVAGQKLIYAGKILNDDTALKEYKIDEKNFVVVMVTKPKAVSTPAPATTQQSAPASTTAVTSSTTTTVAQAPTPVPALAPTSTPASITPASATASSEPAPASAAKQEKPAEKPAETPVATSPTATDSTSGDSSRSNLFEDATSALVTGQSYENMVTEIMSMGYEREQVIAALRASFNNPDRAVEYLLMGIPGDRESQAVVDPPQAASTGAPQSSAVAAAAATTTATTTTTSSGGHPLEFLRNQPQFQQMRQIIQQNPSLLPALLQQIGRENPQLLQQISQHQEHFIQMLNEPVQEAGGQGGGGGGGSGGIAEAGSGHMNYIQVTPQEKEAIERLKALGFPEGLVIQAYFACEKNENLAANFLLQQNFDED
UniProt P47224: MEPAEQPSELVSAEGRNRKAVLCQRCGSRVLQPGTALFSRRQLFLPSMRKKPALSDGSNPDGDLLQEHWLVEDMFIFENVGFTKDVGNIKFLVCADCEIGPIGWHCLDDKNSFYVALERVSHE
UniProt O14966: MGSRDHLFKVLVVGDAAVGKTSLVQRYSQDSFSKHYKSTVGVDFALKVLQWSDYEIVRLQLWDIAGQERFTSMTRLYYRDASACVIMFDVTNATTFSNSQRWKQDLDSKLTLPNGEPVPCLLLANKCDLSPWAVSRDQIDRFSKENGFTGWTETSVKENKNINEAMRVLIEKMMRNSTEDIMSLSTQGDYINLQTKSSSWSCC
UniProt Q9NX57: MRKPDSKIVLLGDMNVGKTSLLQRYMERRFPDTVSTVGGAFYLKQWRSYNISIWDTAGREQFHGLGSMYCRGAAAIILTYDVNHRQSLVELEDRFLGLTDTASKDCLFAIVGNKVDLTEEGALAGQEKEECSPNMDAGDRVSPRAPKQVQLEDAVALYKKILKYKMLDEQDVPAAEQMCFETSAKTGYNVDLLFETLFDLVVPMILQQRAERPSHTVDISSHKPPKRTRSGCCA

Compound: c1cn2cc(-c3ccc4cn[nH]c4c3)nc(Nc3ccc(N4CCOCC4)cc3)c2n1 [entospletinib]
Test: log2 fold change, soluble protein after heating vs DMSO (PISA); higher = thermal stabilisation; K562 cells, 10 uM, 30 min; active = over 0.2 and 3.5 SD of the protein, either way, in both replicates (recomputed)
Outline: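 K562 cells at 2×10^6 cells/mL were treated for 30 min with 10 μM compound, and aliquots were heated for 3 min over 48°C-58°C before pooling. Extraction used PBS with 0.5% NP-40 at 4°C, and soluble protein was the supernatant after 21,000xg for 90 min, measured by TMTpro 16plex LC-MS/MS with channel sums equalised. Thermal stability values, relative to control samples and from duplicates, are log2 fold changes.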

log2 fold change, inactive:
RAB11A (UniProt P62491) 0.07
RAP2B (UniProt P61225) 0.033
RBBP4 (UniProt Q09028) 0.003
RANGAP1 (UniProt P46060) 0.02
RAD51C (UniProt O43502) 0.072
RAB22A (UniProt Q9UL26) -0.015
RAB7A (UniProt P51149) 0.013
RAD1 (UniProt O60671) 0.035
RAD23B (UniProt P54727) -0.021
RABIF (UniProt P47224) -0.021
RAB29 (UniProt O14966) -0.035
RAB20 (UniProt Q9NX57) -0.047

Nothing new here: an excerpt of the list.
log2 fold change, inactive:
RABIF (UniProt P47224) -0.021
RAB29 (UniProt O14966) -0.035
